In the supplement of paper PMC8728848:
The list shows a part of the results.

What was measured:
Assay in all cases: glycan array binding signal (z-score within array); higher = stronger binding
Conditions in all cases: glycan notation: IUPAC condensed, linker removed
[1] = biological target: Gal(b1-4)GlcNAc(b1-3)Gal(b1-4)GlcNAc(b1-2)[Gal(b1-4)GlcNAc(b1-3)Gal(b1-4)GlcNAc(b1-6)]Man(a1-6)[Gal(b1-4)GlcNAc(b1-3)Gal(b1-4)GlcNAc(b1-2)Man(a1-3)]Man(b1-4)GlcNAc(b1-4)[Fuc(a1-6)]GlcNAc
Procedure, shortened: (§1)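 Columns mapping to the same glycan were averaged after glycan names were converted to IUPAC-condensed notation. The data come from 3228 arrays in the Consortium for Functional Glycomics database, limited to those with an available protein sequence. Binding is reported as a within-array Z-score averaged across arrays of one protein sequence and across linkers.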

[2] = biological target: Gal(b1-4)GlcNAc(b1-3)Gal(b1-4)GlcNAc(b1-3)Gal(b1-4)GlcNAc
Procedure, shortened: as §1

[3] = biological target: Gal(b1-4)GlcNAc(b1-3)Gal(b1-4)GlcNAc(b1-3)Gal(b1-4)GlcNAc(b1-2)Man(a1-3)[Gal(b1-4)GlcNAc(b1-3)Gal(b1-4)GlcNAc(b1-3)Gal(b1-4)GlcNAc(b1-2)Man(a1-6)]Man(b1-4)GlcNAc(b1-4)GlcNAc
Procedure, shortened: as §1

[4] = biological target: Gal(b1-4)GlcNAc(b1-3)Gal(b1-4)GlcNAc(b1-3)Gal(b1-4)GlcNAc(b1-2)Man(a1-3)[Gal(b1-4)GlcNAc(b1-3)Gal(b1-4)GlcNAc(b1-3)Gal(b1-4)GlcNAc(b1-2)Man(a1-6)]Man(b1-4)GlcNAc(b1-4)[Fuc(a1-6)]GlcNAc
Procedure, shortened: as §1

[5] = biological target: Gal(b1-4)GlcNAc(b1-3)Gal(b1-4)GlcNAc(b1-3)Gal(b1-4)GlcNAc(b1-2)[Gal(b1-4)GlcNAc(b1-3)Gal(b1-4)GlcNAc(b1-3)Gal(b1-4)GlcNAc(b1-6)]Man(a1-6)[Gal(b1-4)GlcNAc(b1-3)Gal(b1-4)GlcNAc(b1-3)Gal(b1-4)GlcNAc(b1-2)Man(a1-3)]Man(b1-4)GlcNAc(b1-4)[Fuc(a1-6)]GlcNAc
Procedure, shortened: as §1

[6] = biological target: Gal(b1-4)GlcNAc(b1-3)Gal(b1-4)GlcNAc(b1-3)Gal(b1-4)GlcNAc(b1-3)Gal(b1-4)GlcNAc(b1-2)Man(a1-3)[Gal(b1-4)GlcNAc(b1-3)Gal(b1-4)GlcNAc(b1-3)Gal(b1-4)GlcNAc(b1-3)Gal(b1-4)GlcNAc(b1-2)Man(a1-6)]Man(b1-4)GlcNAc(b1-4)GlcNAc
Procedure, shortened: as §1

[7] = biological target: Gal(b1-4)GlcNAc(b1-3)Gal(b1-4)GlcNAc(b1-3)Gal(b1-4)GlcNAc(b1-3)Gal(b1-4)GlcNAc(b1-2)Man(a1-3)[Gal(b1-4)GlcNAc(b1-3)Gal(b1-4)GlcNAc(b1-3)Gal(b1-4)GlcNAc(b1-3)Gal(b1-4)GlcNAc(b1-2)Man(a1-6)]Man(b1-4)GlcNAc(b1-4)[Fuc(a1-6)]GlcNAc
Procedure, shortened: as §1

[8] = biological target: Gal(b1-4)GlcNAc(b1-3)Gal(b1-4)GlcNAc(b1-3)Gal(b1-4)GlcNAc(b1-3)Gal(b1-4)GlcNAc(b1-2)[Gal(b1-4)GlcNAc(b1-3)Gal(b1-4)GlcNAc(b1-3)Gal(b1-4)GlcNAc(b1-3)Gal(b1-4)GlcNAc(b1-6)]Man(a1-6)[Gal(b1-4)GlcNAc(b1-3)Gal(b1-4)GlcNAc(b1-3)Gal(b1-4)GlcNAc(b1-3)Gal(b1-4)GlcNAc(b1-2)Man(a1-3)]Man(b1-4)GlcNAc(b1-4)[Fuc(a1-6)]GlcNAc
Procedure, shortened: as §1

[9] = biological target: Gal(b1-4)GlcNAc(b1-3)Gal(b1-4)GlcNAc(b1-3)Gal(b1-4)GlcNAc(b1-3)Gal(b1-4)GlcNAc(b1-3)Gal(b1-4)GlcNAc(b1-2)Man(a1-3)[Gal(b1-4)GlcNAc(b1-3)Gal(b1-4)GlcNAc(b1-3)Gal(b1-4)GlcNAc(b1-3)Gal(b1-4)GlcNAc(b1-3)Gal(b1-4)GlcNAc(b1-2)Man(a1-6)]Man(b1-4)GlcNAc(b1-4)GlcNAc
Procedure, shortened: as §1

[10] = biological target: Gal(b1-4)GlcNAc(b1-3)Gal(b1-4)GlcNAc(b1-3)Gal(b1-4)GlcNAc(b1-3)Gal(b1-4)GlcNAc(b1-3)Gal(b1-4)GlcNAc(b1-2)Man(a1-3)[Gal(b1-4)GlcNAc(b1-3)Gal(b1-4)GlcNAc(b1-3)Gal(b1-4)GlcNAc(b1-3)Gal(b1-4)GlcNAc(b1-3)Gal(b1-4)GlcNAc(b1-2)Man(a1-6)]Man(b1-4)GlcNAc(b1-4)[Fuc(a1-6)]GlcNAc
Procedure, shortened: as §1

[11] = biological target: Gal(b1-4)GlcNAc(b1-3)Gal(b1-4)GlcNAc(b1-3)Gal(b1-4)GlcNAc(b1-3)Gal(b1-4)GlcNAc(b1-3)Gal(b1-4)GlcNAc(b1-2)[Gal(b1-4)GlcNAc(b1-3)Gal(b1-4)GlcNAc(b1-3)Gal(b1-4)GlcNAc(b1-3)Gal(b1-4)GlcNAc(b1-3)Gal(b1-4)GlcNAc(b1-6)]Man(a1-6)[Gal(b1-4)GlcNAc(b1-3)Gal(b1-4)GlcNAc(b1-3)Gal(b1-4)GlcNAc(b1-3)Gal(b1-4)GlcNAc(b1-3)Gal(b1-4)GlcNAc(b1-2)Man(a1-3)]Man(b1-4)GlcNAc(b1-4)[Fuc(a1-6)]GlcNAc
Procedure, shortened: as §1

[12] = biological target: Gal(b1-4)GlcNAc(b1-3)Gal(b1-4)GlcNAc(b1-3)Gal(b1-4)GlcNAc(b1-3)Gal(b1-4)GlcNAc(b1-3)Gal(b1-4)GlcNAc(b1-3)Gal(b1-4)GlcNAc(b1-2)Man(a1-3)[Gal(b1-4)GlcNAc(b1-3)Gal(b1-4)GlcNAc(b1-3)Gal(b1-4)GlcNAc(b1-3)Gal(b1-4)GlcNAc(b1-3)Gal(b1-4)GlcNAc(b1-3)Gal(b1-4)GlcNAc(b1-2)Man(a1-6)]Man(b1-4)GlcNAc(b1-4)GlcNAc
Procedure, shortened: as §1

[13] = biological target: Gal(b1-4)GlcNAc(b1-3)Gal(b1-4)GlcNAc(b1-3)GalNAc
Procedure, shortened: as §1

[14] = biological target: Gal(b1-4)GlcNAc(b1-3)Gal(b1-4)GlcNAc(b1-3)[Gal(b1-4)GlcNAc(b1-3)Gal(b1-4)GlcNAc(b1-6)]GalNAc
Procedure, shortened: as §1

[15] = biological target: Gal(b1-4)GlcNAc(b1-3)Gal(b1-4)GlcNAc(b1-6)[Gal(b1-3)]GalNAc
Procedure, shortened: as §1

[16] = biological target: Gal(b1-4)GlcNAc(b1-3)Gal(b1-4)[Fuc(a1-3)]GlcNAc(b1-3)Gal(b1-4)[Fuc(a1-3)]GlcNAc
Procedure, shortened: as §1

[17] = biological target: Gal(b1-4)GlcNAc(b1-3)GalNAc
Procedure, shortened: as §1

[18] = biological target: Gal(b1-4)GlcNAc(b1-3)[Fuc(a1-3)GlcNAc(b1-6)]Gal(b1-4)Glc
Procedure, shortened: as §1

[19] = biological target: Gal(b1-4)GlcNAc(b1-3)[Gal(b1-4)GlcNAc(b1-6)]Gal(b1-4)GlcNAc
Procedure, shortened: as §1

[20] = biological target: Gal(b1-4)GlcNAc(b1-3)[GlcNAc(b1-6)]Gal(b1-4)GlcNAc
Procedure, shortened: as §1

[21] = biological target: Gal(b1-4)GlcNAc(b1-6)Gal(b1-4)GlcNAc
Procedure, shortened: as §1

[22] = biological target: Gal(b1-4)GlcNAc(b1-6)GalNAc
Procedure, shortened: as §1

[23] = biological target: Gal(b1-4)GlcNAc(b1-6)[Gal(b1-3)]GalNAc
Procedure, shortened: as §1

[24] = biological target: Gal(b1-4)GlcNAc(b1-6)[Gal(b1-4)GlcNAc(b1-3)]GalNAc
Procedure, shortened: as §1

Gal(b1-4)GlcNAc6P = biological target: Gal(b1-4)GlcNAc6P
Procedure, shortened: as §1

Gal(b1-6)Gal = biological target: Gal(b1-6)Gal
Procedure, shortened: as §1

Gal3S(b1-3)GalNAc = biological target: Gal3S(b1-3)GalNAc
Procedure, shortened: as §1

Gal3S(b1-3)GlcNAc = biological target: Gal3S(b1-3)GlcNAc
Procedure, shortened: as §1

[25] = biological target: Gal3S(b1-3)[Fuc(a1-4)]GlcNAc
Procedure, shortened: as §1

Gal3S(b1-4)Glc = biological target: Gal3S(b1-4)Glc
Procedure, shortened: as §1

B1: Blon2355mut (Bifidobacterium longum) (protein)
chain: MVQEPTLEWHVIPEPTNVEPLVGTCSLPLSGTVVEQRGADDAEAVFARQLVDDIKRVCGGRWQVASGEVQREVTLRTSPSLDDWSYVLEVSPDGVVITGSGFEGVRDGVQTLRQIIRQIGLTIPCMVIRDRPAFSTRGYYLDVTRGRVPSMAWLKSWVDRLCFYKYNQFQLYIEHTFQFNGLSEVWRGADPLTSSDILELDSYCAARGIELVPSVSTFGHHYTALRTRQLRDLGEFPEDADRPFSLIERMTHHTLNITDERSYEFSTSLIDELMPLFRSRKFNICANETFDLGKGRSKQESAKRGVGAMYADFVERLCRHVDDRGHDVMVWADVALEHPEIIDTLPKNITWLNWQYEPNVDDGTTAALADAGATQMVCPAVWCWNALIPRIDDAWNNITRMARHGRAHDVSGMLVTDWGDFGHVNDPRMSVPGMIFGAQQSWNPDAELSEVDMLSRISTIEYGDHTGSVVGALRGASAKGGFSWSDLVTYLELDDGRGGCNTEIVRVMGCLEAYRNDLPQSGQARLADARVSMLRTLRDSILAGRELNGKLDDAAKDITQLLRVAGDPSSAAVWSLAIDGQRLLNRVGLALLAAHGVVRQDEAGIDAAKLADELECWTEQYSRLWHEVSRQSELARIQHVVWRAADVLRSI
- glycan array binding signal (z-score) [1]: -1.16
- glycan array binding signal (z-score) [2]: -0.668
- glycan array binding signal (z-score) [3]: -0.132
- glycan array binding signal (z-score) [4]: 0.51
- glycan array binding signal (z-score) [5]: 0.359
- glycan array binding signal (z-score) [6]: -0.132
- glycan array binding signal (z-score) [7]: 0.064
- glycan array binding signal (z-score) [8]: 0.815
- glycan array binding signal (z-score) [9]: 1.84
- glycan array binding signal (z-score) [10]: 1.81
- glycan array binding signal (z-score) [11]: 1.08
- glycan array binding signal (z-score) [12]: -0.457
- glycan array binding signal (z-score) [13]: 1.86
- glycan array binding signal (z-score) [14]: 1.95
- glycan array binding signal (z-score) [15]: 0.259
- glycan array binding signal (z-score) [16]: 0.697
- glycan array binding signal (z-score) [17]: -0.592
- glycan array binding signal (z-score) [18]: 0.724
- glycan array binding signal (z-score) [19]: 0.314
- glycan array binding signal (z-score) [20]: -0.722
- glycan array binding signal (z-score) [21]: -0.724
- glycan array binding signal (z-score) [22]: 0.284
- glycan array binding signal (z-score) [23]: 0.075
- glycan array binding signal (z-score) [24]: -0.034
- glycan array binding signal (z-score) (Gal(b1-4)GlcNAc6P): 0.435
- glycan array binding signal (z-score) (Gal(b1-6)Gal): -0.785
- glycan array binding signal (z-score) (Gal3S(b1-3)GalNAc): -0.232
- glycan array binding signal (z-score) (Gal3S(b1-3)GlcNAc): 0.551
- glycan array binding signal (z-score) [25]: 0.1
- glycan array binding signal (z-score) (Gal3S(b1-4)Glc): 2.74
